# Paper PMC5458265
# Results are given in words; binding and its absence hold for the method and conditions named. In cells and extracts the contact can be indirect. Some results given as binding are weak or reduced against the parent protein; the word gives no strength.
# B1: PMAIP1/NOXA, Q13794 1-54 (protein)
# chain: MPGKKARKNAQPSPARAPAELEVECATQLRRFGDKLNFRQKLLNLISKLFCSGT
# Target: BCL2L1/BCLXL (human (endogenous in SH-EP)), Q07817
# Assay: co-IP; endogenous BCLXL precipitated with 1 ug BCLXL antibody covalently coupled to Protein A support from SH-EP lysate (1% IGEPAL buffer, at least 1000 ug lysate, 4 °C, 6 hours); cells untreated or treated with 50 nM MG-2477 for 30 minutes and two hours; immunoblot
# Conditions: remark: other sources report otherwise
binder,measurement,value
B1,binding,binds
